For at least one entry, the source does not settle the construct or the ends of the probe. Negatives hold for the conditions tested.
Target: RAD51 (Homo sapiens) (UniProt Q06609)
Test: cryo-EM structure (3.6 A)
Settings: ADP, Ca2+, no DNA density in any 3D class, authors allow weak or heterogeneous association; recombinant protein

The chains behind the UniProt entries cited, without tags or fusion partners.
UniProt Q06609, whole entry: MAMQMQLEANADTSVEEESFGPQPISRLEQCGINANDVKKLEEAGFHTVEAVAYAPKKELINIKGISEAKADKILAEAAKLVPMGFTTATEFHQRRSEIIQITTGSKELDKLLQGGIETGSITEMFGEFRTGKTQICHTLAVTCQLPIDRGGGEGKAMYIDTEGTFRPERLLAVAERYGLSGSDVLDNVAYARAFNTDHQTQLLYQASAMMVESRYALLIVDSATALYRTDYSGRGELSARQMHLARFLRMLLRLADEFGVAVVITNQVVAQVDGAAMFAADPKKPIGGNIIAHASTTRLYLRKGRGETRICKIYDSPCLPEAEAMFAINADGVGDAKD

ATGGTGTGTGTAGGTTAATGTGAGGAGGAGAGGTGAAGAAGGAGGAGAGAAGAAGGAGGC (double strand) [x60:cx60 dsDNA]
binding result: no binding

— PMC10192527
